According to EP0076973A1, “A new dioxolanic compound and its method of preparation; a new dioxolanic amine with pharmacological activity, its method of preparation, and the pharmaceutical compositions containing them” (Investigacion Tecnica y Aplicada, S.A., priority 1981, dated 1983):

What was measured:
[1] = Acute toxicity (LD50, method of Litchfield and Wilcoxon) in the mouse; conditions: in vivo
Procedure: (§1) The respective lethal dose 50 was calculated according to the method of Litchfield and Wilcoxon (Jl. Pharmacol. Exptl. 96 99, 1949 ).

[2] = Acute toxicity (LD50, method of Litchfield and Wilcoxon) in the rat; conditions: in vivo, ip, intraperitoneal administration, read-out: LD50 and confidence limits
Procedure: as §1

[3] = system: male NMRI mouse; assay: Anti-arrythmic activity: fibrillation by chloroform in the mouse; format: in vivo
Description: Tables 5 and 6 show the anti-arrithmic activity of the ITA 362 in the male NMRI mouse by oral and intraperitoneal route using the fibrillation test by chloroform in the mouse. […] The activity of the two forms of maleate described in the example 2 were studied and which in the table are subtitled as isomer A corresponding to the first fraction obtained in the aforementioned example, and isomer B corresponding to the second fraction.

For `CCCCc1oc2ccccc2c1C(=O)c1cc(I)c(OCCN(CC)CC)c(I)c1` [Amiodarona, reference compound], the LD50 ([1]; ip, intraperitoneal administration, read-out: LD50 and confidence limits) was 940 mg/kg, the LD50 ([1]; oral administration, read-out: LD50) was greater than 4000 mg/kg and the LD50 [2] was 885 mg/kg. For the same compound, the ED50 ([3]; Mus musculus, ip, no unit given for ED50 (doses in mg/kg), read-out: ED50 and confidence limits p < 0,05) was 34 mg/kg, the “% protection versus fibrillation” value ([3]; i.p. 25 mg/kg) was 45% and the “% protection versus fibrillation” value ([3]; i.p. 50 mg/kg) was 52,6%.
